# PubChem BioAssay AID1259308, NCATS | 2017
# Screen: 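Candidate targets for better recombinant protein yield in mammalian cells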 (primary screen)
# System: human HEK293 embryonic kidney cells stably expressing firefly luciferase (HEK-CMV-Luc2-Hygro)
# Knock-down reagent: single siRNA against human genes, 0.8 pmol siRNA per well
# Duration: 72 h
# Measured: 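Luciferase light (ONE-Glo) measured on one replicate plate set and viability (CellTiter-Glo) on the other, scaled to a negative control siRNA, with robust z-scores and luciferase per cell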
# Scale: total luciferase, z-score and total luciferase, % of control: higher = more reporter protein produced; luciferase per cell, z-score: higher = more reporter output per viable cell
# Rule for the call: 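An siRNA counts as active if its total luciferase robust z-score exceeds 3; genes with two or more such siRNAs out of three were retested with fresh siRNAs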
# Meaning of the calls: active = raised luciferase; inactive = no rise
# The whole screen tested about 59,000 reagents; shown is an unselected part. In the full data, about 1,510 (2.6%) are marked active. 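Calls use total luciferase alone and ignore viability, so some active siRNAs may act by altering cell number.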 Reagents against one gene are numbered here. Further read-outs or replicates are left out here.
gene,siRNA no.,"total luciferase, z-score","total luciferase, % of control","luciferase per cell, z-score",activity call
PRDM10,1,1.03,102,1.03,inactive
PRDM10,2,0.0604,83.1,-0.379,inactive
PRDM10,3,-0.122,79.5,0.589,inactive
CST6,1,1.25,107,0.392,inactive
CST6,2,-1.35,55.1,-2.06,inactive
CST6,3,0.663,95.1,0.283,inactive
ALOX12,1,0.359,89,-0.287,inactive
ALOX12,2,2.78,137,2.57,inactive
ALOX12,3,-0.0268,81.4,0.226,inactive
PRAMEF2,1,0.023,82.3,-0.254,inactive
PRAMEF2,2,-0.962,62.8,-1.3,inactive
PRAMEF2,3,1.61,114,1.19,inactive
SEC13,1,1.17,105,0.757,inactive
SEC13,2,-1.3,56,-0.907,inactive
SEC13,3,-0.214,77.6,0.0219,inactive
CLTRN,1,0.866,99.1,0.534,inactive
CLTRN,2,1.66,115,1.25,inactive
CLTRN,3,0.591,93.6,0.0702,inactive
THNSL2,1,0.00781,82,-0.411,inactive
THNSL2,2,0.881,99.4,1.21,inactive
THNSL2,3,1.36,109,0.923,inactive
JPT2,1,-0.338,75.2,0.025,inactive
JPT2,2,-0.428,73.4,-0.686,inactive
JPT2,3,-0.322,75.5,0.209,inactive
RBM33,1,-0.473,72.5,-0.555,inactive
RBM33,2,-0.189,78.1,-0.137,inactive
RBM33,3,-0.258,76.8,-0.442,inactive
LGR6,1,-1.73,47.5,-0.488,inactive
LGR6,2,4.25,166,2.71,active
LGR6,3,-0.426,73.4,-0.415,inactive

The list goes on (8 carried over from the part before).
gene,siRNA no.,"total luciferase, z-score","total luciferase, % of control","luciferase per cell, z-score",activity call
JPT2,2,-0.428,73.4,-0.686,inactive
JPT2,3,-0.322,75.5,0.209,inactive
RBM33,1,-0.473,72.5,-0.555,inactive
RBM33,2,-0.189,78.1,-0.137,inactive
RBM33,3,-0.258,76.8,-0.442,inactive
LGR6,1,-1.73,47.5,-0.488,inactive
LGR6,2,4.25,166,2.71,active
LGR6,3,-0.426,73.4,-0.415,inactive
THSD4,1,-1.89,44.2,-0.942,inactive
THSD4,2,0.736,96.5,0.0554,inactive
THSD4,3,-0.488,72.2,0.288,inactive
TBATA,1,0.917,100,1.12,inactive
TBATA,2,0.939,101,0.822,inactive
TBATA,3,-0.0796,80.3,0.43,inactive
ZFPL1,1,-1.09,60.3,-1.13,inactive
ZFPL1,2,-0.815,65.7,-0.88,inactive
ZFPL1,3,0.579,93.4,0.365,inactive
ATF7,1,0.251,86.9,1.18,inactive
ATF7,2,2.14,124,2.11,inactive
ATF7,3,0.656,94.9,0.513,inactive
MIDN,1,-0.806,65.9,-0.732,inactive
MIDN,2,0.245,86.8,1.26,inactive
MIDN,3,0.192,85.7,-0.278,inactive
APP,1,0.787,97.5,0.121,inactive
APP,2,-0.17,78.5,0.0329,inactive
APP,3,0.914,100,0.859,inactive
KIAA0753,1,-0.6,69.9,-0.999,inactive
KIAA0753,2,0.394,89.7,0.359,inactive
KIAA0753,3,-0.726,67.4,-0.257,inactive
DYNLL1P7,1,-0.303,75.9,1.62,inactive
DYNLL1P7,2,0.248,86.8,0.584,inactive
DYNLL1P7,3,-0.227,77.4,-0.684,inactive
RORB,1,2.14,124,1.44,inactive
RORB,2,0.405,89.9,0.796,inactive
RORB,3,-0.0654,80.6,0.208,inactive
